Consider nine targets from the supplement of paper PMC10849652.

Sequences of proteins named here, by UniProt entry; tags and fusion partners are left off. A change or cut given only in a name is not applied to a line headed by its entry.
UniProt O00192: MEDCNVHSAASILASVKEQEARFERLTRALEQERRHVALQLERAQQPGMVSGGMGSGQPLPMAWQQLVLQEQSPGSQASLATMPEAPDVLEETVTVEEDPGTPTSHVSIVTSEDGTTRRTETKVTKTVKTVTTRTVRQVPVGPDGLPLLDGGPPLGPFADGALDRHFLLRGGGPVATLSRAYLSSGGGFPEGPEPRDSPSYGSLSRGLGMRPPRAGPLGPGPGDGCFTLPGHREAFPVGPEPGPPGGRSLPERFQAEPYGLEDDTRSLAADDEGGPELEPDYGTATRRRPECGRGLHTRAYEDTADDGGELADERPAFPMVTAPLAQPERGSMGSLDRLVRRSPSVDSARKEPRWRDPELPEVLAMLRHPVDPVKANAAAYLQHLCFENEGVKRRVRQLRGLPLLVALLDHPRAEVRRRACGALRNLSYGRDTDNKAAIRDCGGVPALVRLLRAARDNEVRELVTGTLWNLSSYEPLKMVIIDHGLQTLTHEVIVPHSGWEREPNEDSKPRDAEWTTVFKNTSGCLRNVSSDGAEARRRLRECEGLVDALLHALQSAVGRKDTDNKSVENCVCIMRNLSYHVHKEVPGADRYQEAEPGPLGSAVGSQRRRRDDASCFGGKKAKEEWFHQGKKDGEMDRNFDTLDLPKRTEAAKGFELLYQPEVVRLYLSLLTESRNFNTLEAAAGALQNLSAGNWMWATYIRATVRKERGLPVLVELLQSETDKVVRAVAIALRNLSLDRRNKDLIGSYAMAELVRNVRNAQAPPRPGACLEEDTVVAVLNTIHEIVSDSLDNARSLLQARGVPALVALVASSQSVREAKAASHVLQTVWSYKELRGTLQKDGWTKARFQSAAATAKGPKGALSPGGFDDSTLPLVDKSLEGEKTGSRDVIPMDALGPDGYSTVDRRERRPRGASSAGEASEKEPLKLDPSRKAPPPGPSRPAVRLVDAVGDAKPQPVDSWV
UniProt O75915: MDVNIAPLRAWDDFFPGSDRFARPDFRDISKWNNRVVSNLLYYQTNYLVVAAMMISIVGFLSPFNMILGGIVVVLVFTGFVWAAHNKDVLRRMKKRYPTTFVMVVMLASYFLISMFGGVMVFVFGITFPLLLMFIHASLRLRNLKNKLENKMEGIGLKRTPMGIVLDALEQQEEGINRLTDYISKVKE
UniProt P78540: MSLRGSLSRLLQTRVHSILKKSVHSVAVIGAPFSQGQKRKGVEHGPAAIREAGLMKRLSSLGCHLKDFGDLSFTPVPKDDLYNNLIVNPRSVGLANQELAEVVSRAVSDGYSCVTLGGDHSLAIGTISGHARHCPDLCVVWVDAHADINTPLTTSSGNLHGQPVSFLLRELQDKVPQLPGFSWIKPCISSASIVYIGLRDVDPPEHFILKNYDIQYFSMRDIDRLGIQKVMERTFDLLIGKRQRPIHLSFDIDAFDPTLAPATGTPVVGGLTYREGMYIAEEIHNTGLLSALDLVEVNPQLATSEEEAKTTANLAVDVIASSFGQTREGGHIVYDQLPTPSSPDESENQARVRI
UniProt Q8TDY4: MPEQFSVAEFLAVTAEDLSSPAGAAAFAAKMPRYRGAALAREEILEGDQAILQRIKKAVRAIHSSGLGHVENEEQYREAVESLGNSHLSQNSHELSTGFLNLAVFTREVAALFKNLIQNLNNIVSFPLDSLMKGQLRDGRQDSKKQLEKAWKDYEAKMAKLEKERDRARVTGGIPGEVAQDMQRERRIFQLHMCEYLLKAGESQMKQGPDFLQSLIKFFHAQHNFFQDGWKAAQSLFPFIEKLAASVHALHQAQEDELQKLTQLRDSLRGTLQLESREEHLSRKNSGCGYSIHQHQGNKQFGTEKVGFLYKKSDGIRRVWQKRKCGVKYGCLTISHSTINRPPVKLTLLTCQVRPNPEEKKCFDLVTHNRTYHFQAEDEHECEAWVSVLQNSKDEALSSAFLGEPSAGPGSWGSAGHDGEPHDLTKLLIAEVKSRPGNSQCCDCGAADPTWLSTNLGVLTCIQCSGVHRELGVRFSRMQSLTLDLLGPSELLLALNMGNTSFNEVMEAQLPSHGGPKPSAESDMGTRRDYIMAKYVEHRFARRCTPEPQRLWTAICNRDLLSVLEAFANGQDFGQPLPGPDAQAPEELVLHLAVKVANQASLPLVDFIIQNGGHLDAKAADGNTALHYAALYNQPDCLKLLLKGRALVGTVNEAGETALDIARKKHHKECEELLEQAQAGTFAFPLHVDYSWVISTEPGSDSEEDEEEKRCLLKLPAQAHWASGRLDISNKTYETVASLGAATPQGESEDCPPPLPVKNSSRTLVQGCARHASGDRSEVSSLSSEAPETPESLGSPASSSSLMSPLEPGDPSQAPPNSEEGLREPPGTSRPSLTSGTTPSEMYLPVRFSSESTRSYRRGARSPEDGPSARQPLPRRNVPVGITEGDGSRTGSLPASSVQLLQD
UniProt Q6UXV4: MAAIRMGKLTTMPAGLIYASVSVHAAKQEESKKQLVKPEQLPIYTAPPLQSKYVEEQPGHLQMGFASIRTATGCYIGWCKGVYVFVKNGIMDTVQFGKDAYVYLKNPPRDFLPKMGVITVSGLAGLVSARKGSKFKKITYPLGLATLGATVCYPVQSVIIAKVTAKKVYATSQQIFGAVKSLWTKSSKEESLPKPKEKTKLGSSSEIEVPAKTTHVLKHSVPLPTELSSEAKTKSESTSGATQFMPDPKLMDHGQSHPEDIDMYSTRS
UniProt Q8N5I2: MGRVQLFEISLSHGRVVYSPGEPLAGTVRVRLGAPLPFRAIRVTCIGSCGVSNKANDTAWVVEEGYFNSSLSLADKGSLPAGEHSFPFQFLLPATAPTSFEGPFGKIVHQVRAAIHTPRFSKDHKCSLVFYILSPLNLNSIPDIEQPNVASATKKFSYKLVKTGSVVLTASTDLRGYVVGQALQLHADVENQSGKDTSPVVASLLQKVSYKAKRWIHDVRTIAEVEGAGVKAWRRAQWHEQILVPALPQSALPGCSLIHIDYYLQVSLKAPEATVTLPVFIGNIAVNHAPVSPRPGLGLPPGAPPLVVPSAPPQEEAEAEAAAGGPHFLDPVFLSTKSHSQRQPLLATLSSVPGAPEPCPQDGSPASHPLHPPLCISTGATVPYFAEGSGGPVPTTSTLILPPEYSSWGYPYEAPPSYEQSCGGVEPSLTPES
UniProt Q14CB8: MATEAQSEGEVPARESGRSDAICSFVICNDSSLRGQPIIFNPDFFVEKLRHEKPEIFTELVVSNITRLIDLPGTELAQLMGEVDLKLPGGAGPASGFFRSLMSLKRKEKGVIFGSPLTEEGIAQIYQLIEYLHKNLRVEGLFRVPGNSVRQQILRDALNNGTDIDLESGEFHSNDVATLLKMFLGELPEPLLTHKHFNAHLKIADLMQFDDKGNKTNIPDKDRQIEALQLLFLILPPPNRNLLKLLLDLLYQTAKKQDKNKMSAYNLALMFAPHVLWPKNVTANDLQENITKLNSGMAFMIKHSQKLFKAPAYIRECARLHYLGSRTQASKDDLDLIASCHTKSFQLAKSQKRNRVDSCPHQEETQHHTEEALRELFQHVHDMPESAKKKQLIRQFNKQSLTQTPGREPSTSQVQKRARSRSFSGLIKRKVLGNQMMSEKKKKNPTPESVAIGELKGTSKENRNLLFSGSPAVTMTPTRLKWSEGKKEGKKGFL
UniProt Q14155: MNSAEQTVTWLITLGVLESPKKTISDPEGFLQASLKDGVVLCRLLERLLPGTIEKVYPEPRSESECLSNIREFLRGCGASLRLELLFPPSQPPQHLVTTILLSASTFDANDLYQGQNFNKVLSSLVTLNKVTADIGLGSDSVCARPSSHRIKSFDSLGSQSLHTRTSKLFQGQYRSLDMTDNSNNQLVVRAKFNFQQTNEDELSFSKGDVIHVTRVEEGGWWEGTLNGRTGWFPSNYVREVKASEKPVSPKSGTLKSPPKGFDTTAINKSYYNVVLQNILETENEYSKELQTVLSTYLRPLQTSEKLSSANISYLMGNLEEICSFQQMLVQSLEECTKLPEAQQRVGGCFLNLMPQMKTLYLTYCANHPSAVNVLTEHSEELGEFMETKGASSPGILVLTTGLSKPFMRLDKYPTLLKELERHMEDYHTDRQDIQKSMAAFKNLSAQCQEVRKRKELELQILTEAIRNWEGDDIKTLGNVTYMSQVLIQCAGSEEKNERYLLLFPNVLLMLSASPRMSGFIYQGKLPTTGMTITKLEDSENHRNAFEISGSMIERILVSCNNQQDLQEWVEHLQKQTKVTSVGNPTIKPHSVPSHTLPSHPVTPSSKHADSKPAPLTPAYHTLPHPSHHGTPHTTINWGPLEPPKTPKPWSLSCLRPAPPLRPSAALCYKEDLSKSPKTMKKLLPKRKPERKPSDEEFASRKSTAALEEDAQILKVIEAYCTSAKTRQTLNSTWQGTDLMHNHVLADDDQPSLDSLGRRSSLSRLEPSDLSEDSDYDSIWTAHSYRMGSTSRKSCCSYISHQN

The list shows a part of the results.

Test in all cases: log2 fold change, soluble protein after heating vs DMSO (PISA); higher = thermal stabilisation; K562 lysate, 10 uM; active = over 0.2 and 3.5 SD of the protein, either way, in both replicates (recomputed)
Compound in assay [1]: NCC(=O)Nc1ccc(-n2nc(C(F)(F)F)cc2-c2ccc3c(ccc4ccccc43)c2)cc1
In outline: (§1)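 Thermal stability, expressed as log-two fold change relative to solvent controls, is given from duplicates. Crude K562 extract in PBS pH 7.4 with 1 mM MgCl2, at 1 mg/mL protein, was treated with 10 μM compound for 30 min and heated in aliquots for 3 min across 48°C-58°C. After pooling, adjustment to 0.5% NP-40 at 4°C and centrifugation at 21,000xg for 90 min, supernatant protein was measured by TMTpro 16plex LC-MS/MS with channel sums equalised.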

Compound in assay [2]: O=C(CCCCCCC(=O)Nc1ccccc1)NO [vorinostat]
In short, it runs like this:
as §1

Compound in assay [3]: O=C(O)c1ccc2c(c1)nc(Nc1cccc(Cl)c1)c1ccncc12 [silmitasertib]
In outline:
as §1

Compound in assay [4]: O=C1NC(=O)C(c2cnc3ccccn23)=C1c1cn2c3c(cc(F)cc13)CN(C(=O)N1CCCCC1)CC2
In outline: as §1

Compound in assay [5]: c1cn2cc(-c3ccc4cn[nH]c4c3)nc(Nc3ccc(N4CCOCC4)cc3)c2n1 [entospletinib]
In short, it runs like this: as §1

On to ARVCF (UniProt O00192), for which the log2 fold change was inactive: 0.034 in assay [1]; inactive: -0.209 in assay [2]; inactive: 0.043 in assay [3]; inactive: -0.051 in assay [4]; inactive: -0.027 in assay [5].

For the target ARL6IP5 (UniProt O75915), the log2 fold change in assay [1] was inactive: 0.003; in assay [2], inactive: -0.01; in assay [3], inactive: 0.044; in assay [4], inactive: -0.082; in assay [5], inactive: -0.017.

As for ARG2 (UniProt P78540), the log2 fold change in assay [1] was inactive: 0.024; in assay [2], inactive: 0.143; in assay [3], inactive: -0.037; in assay [4] it was inactive: -0.003; in assay [5], inactive: -0.033.

As for ASAP3 (UniProt Q8TDY4), the log2 fold change was inactive: 0.009 in assay [1]; inactive: -0.219 in assay [2]; inactive: 0.023 in assay [3]; inactive: -0.014 in assay [4]; inactive: 0.029 in assay [5].

With APOOL (UniProt Q6UXV4), the log2 fold change in assay [1] is inactive: 0.003; in assay [2], inactive: 0.015; in assay [3], inactive: -0.022; in assay [4], inactive: -0.014; in assay [5] it was inactive: 0.04.

As for ARRDC1 (UniProt Q8N5I2), the log2 fold change in assay [1] is inactive: -0.004; in assay [2] it was inactive: -0.013; in assay [3], inactive: 0.019; in assay [4], inactive: 0.041; in assay [5], inactive: -0.087.

Turning to ARHGAP19 isoform 2 (UniProt Q14CB8), the log2 fold change was inactive: -0.021 in assay [1]; inactive: -0.231 in assay [2]; inactive: -0.012 in assay [3]; inactive: -0.101 in assay [4]; inactive: 0.063 in assay [5].

On to ARHGEF7 isoform 5 (UniProt Q14155), for which the log2 fold change was inactive: 0 in assay [1]; inactive: -0.159 in assay [2]; inactive: 0.044 in assay [3]; inactive: 0.017 in assay [4]; inactive: 0.053 in assay [5].

Regarding ARHGEF1 (UniProt M0QZR4), the log2 fold change in assay [1] was inactive: 0.019; in assay [2], active: -0.392; in assay [3], inactive: 0.023; in assay [4], inactive: 0.004; in assay [5] it was inactive: 0.003.
